Patent publication US20060257938A1, “Method of screening for drugs that block ligand binding to a lipid binding protein” (priority 2005, published 2006)

Assay: Baseline fluorescence ratio Ro of probe in absence of analyte
Details: baseline fluorescence ratio of probe

B1: 17F, 72A (protein, listed as Rattus norvegicus)
chain: AFDGTWKVDRNENYEKFMEKMGINVVKRKLGAHDNLKLTITQEGNKFTVKESSNFRNIDVVFELGVDFAYSAADGTELTGTWTMEGNKLVGKFKRVDNGKELIAVREISGNELIQTYTYEGVEAKRIFKKE
modifications: PEPTIDE (1)...(131) wild-type rat intestinal fatty acid binding protein
- AvgOfRo (no fatty acid): 0.19

B2: 17V, 72A (protein, listed as Rattus norvegicus)
chain: AFDGTWKVDRNENYEKVMEKMGINVVKRKLGAHDNLKLTITQEGNKFTVKESSNFRNIDVVFELGVDFAYSAADGTELTGTWTMEGNKLVGKFKRVDNGKELIAVREISGNELIQTYTYEGVEAKRIFKKE
modifications: PEPTIDE (1)...(131) wild-type rat intestinal fatty acid binding protein
- Ro: 0.305
- AvgOfRo (no fatty acid): 0.30

B3: 17P, 72A (protein, listed as Rattus norvegicus)
chain: AFDGTWKVDRNENYEKPMEKMGINVVKRKLGAHDNLKLTITQEGNKFTVKESSNFRNIDVVFELGVDFAYSAADGTELTGTWTMEGNKLVGKFKRVDNGKELIAVREISGNELIQTYTYEGVEAKRIFKKE
modifications: PEPTIDE (1)...(131) wild-type rat intestinal fatty acid binding protein
- AvgOfRo (no fatty acid): 0.45

B4: 17W, 72A (protein, listed as Rattus norvegicus)
chain: AFDGTWKVDRNENYEKWMEKMGINVVKRKLGAHDNLKLTITQEGNKFTVKESSNFRNIDVVFELGVDFAYSAADGTELTGTWTMEGNKLVGKFKRVDNGKELIAVREISGNELIQTYTYEGVEAKRIFKKE
modifications: PEPTIDE (1)...(131) wild-type rat intestinal fatty acid binding protein
- AvgOfRo (no fatty acid): 0.18
- Ro (no fatty acid): 0.175

B5: 17Q, 72A (protein, listed as Rattus norvegicus)
chain: AFDGTWKVDRNENYEKQMEKMGINVVKRKLGAHDNLKLTITQEGNKFTVKESSNFRNIDVVFELGVDFAYSAADGTELTGTWTMEGNKLVGKFKRVDNGKELIAVREISGNELIQTYTYEGVEAKRIFKKE
modifications: PEPTIDE (1)...(131) wild-type rat intestinal fatty acid binding protein
- AvgOfRo (no fatty acid): 0.25

B6: 17N, 72A (protein, listed as Rattus norvegicus)
chain: AFDGTWKVDRNENYEKNMEKMGINVVKRKLGAHDNLKLTITQEGNKFTVKESSNFRNIDVVFELGVDFAYSAADGTELTGTWTMEGNKLVGKFKRVDNGKELIAVREISGNELIQTYTYEGVEAKRIFKKE
modifications: PEPTIDE (1)...(131) wild-type rat intestinal fatty acid binding protein
- AvgOfRo (no fatty acid): 0.34

B7: 17S, 72A (protein, listed as Rattus norvegicus)
chain: AFDGTWKVDRNENYEKSMEKMGINVVKRKLGAHDNLKLTITQEGNKFTVKESSNFRNIDVVFELGVDFAYSAADGTELTGTWTMEGNKLVGKFKRVDNGKELIAVREISGNELIQTYTYEGVEAKRIFKKE
modifications: PEPTIDE (1)...(131) wild-type rat intestinal fatty acid binding protein
- AvgOfRo (no fatty acid): 0.35

B8: 17R, 72A (protein, listed as Rattus norvegicus)
chain: AFDGTWKVDRNENYEKRMEKMGINVVKRKLGAHDNLKLTITQEGNKFTVKESSNFRNIDVVFELGVDFAYSAADGTELTGTWTMEGNKLVGKFKRVDNGKELIAVREISGNELIQTYTYEGVEAKRIFKKE
modifications: PEPTIDE (1)...(131) wild-type rat intestinal fatty acid binding protein
- AvgOfRo (no fatty acid): 0.36

B9: 17G, 72A (protein, listed as Rattus norvegicus)
chain: AFDGTWKVDRNENYEKGMEKMGINVVKRKLGAHDNLKLTITQEGNKFTVKESSNFRNIDVVFELGVDFAYSAADGTELTGTWTMEGNKLVGKFKRVDNGKELIAVREISGNELIQTYTYEGVEAKRIFKKE
modifications: PEPTIDE (1)...(131) wild-type rat intestinal fatty acid binding protein
- AvgOfRo (no fatty acid): 0.39

B10: 17K 72A (protein, listed as Rattus norvegicus)
chain: AFDGTWKVDRNENYEKKMEKMGINVVKRKLGAHDNLKLTITQEGNKFTVKESSNFRNIDVVFELGVDFAYSAADGTELTGTWTMEGNKLVGKFKRVDNGKELIAVREISGNELIQTYTYEGVEAKRIFKKE
modifications: PEPTIDE (1)...(131) wild-type rat intestinal fatty acid binding protein
- AvgOfRo (no fatty acid): 0.41

B11: 17H, 72A (protein, listed as Rattus norvegicus)
chain: AFDGTWKVDRNENYEKHMEKMGINVVKRKLGAHDNLKLTITQEGNKFTVKESSNFRNIDVVFELGVDFAYSAADGTELTGTWTMEGNKLVGKFKRVDNGKELIAVREISGNELIQTYTYEGVEAKRIFKKE
modifications: PEPTIDE (1)...(131) wild-type rat intestinal fatty acid binding protein
- AvgOfRo (no fatty acid): 0.36

B12: 17M, 72A (protein, listed as Rattus norvegicus)
chain: AFDGTWKVDRNENYEKMMEKMGINVVKRKLGAHDNLKLTITQEGNKFTVKESSNFRNIDVVFELGVDFAYSAADGTELTGTWTMEGNKLVGKFKRVDNGKELIAVREISGNELIQTYTYEGVEAKRIFKKE
modifications: PEPTIDE (1)...(131) wild-type rat intestinal fatty acid binding protein
- Ro: 0.296
- AvgOfRo (no fatty acid): 0.30

B13: 17Y, 72A (protein, listed as Rattus norvegicus)
chain: AFDGTWKVDRNENYEKYMEKMGINVVKRKLGAHDNLKLTITQEGNKFTVKESSNFRNIDVVFELGVDFAYSAADGTELTGTWTMEGNKLVGKFKRVDNGKELIAVREISGNELIQTYTYEGVEAKRIFKKE
modifications: PEPTIDE (1)...(131) wild-type rat intestinal fatty acid binding protein
- AvgOfRo (no fatty acid): 0.65
- Ro (no fatty acid): 0.647

B14: 17T, 72A (protein, listed as Rattus norvegicus)
chain: AFDGTWKVDRNENYEKTMEKMGINVVKRKLGAHDNLKLTITQEGNKFTVKESSNFRNIDVVFELGVDFAYSAADGTELTGTWTMEGNKLVGKFKRVDNGKELIAVREISGNELIQTYTYEGVEAKRIFKKE
modifications: PEPTIDE (1)...(131) wild-type rat intestinal fatty acid binding protein
- AvgOfRo (no fatty acid): 0.32

B15: 17I, 72A (protein, listed as Rattus norvegicus)
chain: AFDGTWKVDRNENYEKIMEKMGINVVKRKLGAHDNLKLTITQEGNKFTVKESSNFRNIDVVFELGVDFAYSAADGTELTGTWTMEGNKLVGKFKRVDNGKELIAVREISGNELIQTYTYEGVEAKRIFKKE
modifications: PEPTIDE (1)...(131) wild-type rat intestinal fatty acid binding protein
- Ro: 0.258
- AvgOfRo (no fatty acid): 0.26
- Ro (no fatty acid): 0.258

B16: 17L, 72A (protein, listed as Rattus norvegicus)
chain: AFDGTWKVDRNENYEKLMEKMGINVVKRKLGAHDNLKLTITQEGNKFTVKESSNFRNIDVVFELGVDFAYSAADGTELTGTWTMEGNKLVGKFKRVDNGKELIAVREISGNELIQTYTYEGVEAKRIFKKE
modifications: PEPTIDE (1)...(131) wild-type rat intestinal fatty acid binding protein
- Ro: 0.251
- AvgOfRo (no fatty acid): 0.25
